This test deals with S. japonicum GST-HPV-16 E7 chimeric protein (Human Papillomavirus 16 (HPV-16)) (UniProt P03129). Put plainly: affinity purification with mass spectrometry; 1.5 µg GST-HPV-16 E7 (or S.j GST alone) added to HaCaT cell lysate (50 mM Tris-Cl pH 7.4, 5 mM EDTA, 250 mM NaCl, 0.1% Triton X-100), 100 min at 4°C; collected on glutathione-Sepharose 4B; SDS-PAGE, silver staining; band identified by MALDI-ToF peptide mass fingerprinting; only the target purified.

The chains behind the UniProt entries cited, without tags or fusion partners.
UniProt P09211: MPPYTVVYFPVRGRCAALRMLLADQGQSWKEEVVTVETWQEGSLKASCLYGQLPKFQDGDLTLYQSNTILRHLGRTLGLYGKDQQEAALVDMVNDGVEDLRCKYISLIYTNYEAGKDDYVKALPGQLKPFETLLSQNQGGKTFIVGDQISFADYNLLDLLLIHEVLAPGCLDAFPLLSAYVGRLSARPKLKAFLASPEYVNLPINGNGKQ

These are yes or no findings as the source states them, for the method shown. In cells and extracts the contact can be indirect. A yes stands for co-enrichment or nearness to the bait. Other partners may have been found.

For “glutathione S-transferase P1-1 (GSTP1), endogenous (from UniProt P09211 1-210)”, the binding entry is on record as “binds”.

Values taken from paper PMC2758704.
